Source: patent publication US20250101043A1, “KRAS INHIBITORS” (Eli Lilly and Company, priority 2023, published 2025)
Some results were stated once for a whole list of compounds, not compound by compound.

Amino acid sequences for entries named in this document (tags omitted). Residues count along the entry.
UniProt P01116, 1-188 isoform P01116-2 G12D: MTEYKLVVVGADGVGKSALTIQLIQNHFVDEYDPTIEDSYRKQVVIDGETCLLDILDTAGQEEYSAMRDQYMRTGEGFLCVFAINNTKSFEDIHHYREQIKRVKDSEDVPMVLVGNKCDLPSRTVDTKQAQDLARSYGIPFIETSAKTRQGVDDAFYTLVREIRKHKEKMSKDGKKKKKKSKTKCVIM

What was measured:
KRas G12D mutant = target: T1, KRas G12D mutant (Homo sapiens, UniProt P01116, G12D); assay: PANC-1 Cellular Active RAS GTPase ELISA (KRas G12D Mutation); type: cell-based; conditions: human PANC-1 pancreatic ductal adenocarcinoma cells, 2 hours incubation, read-out: relative IC50, inhibition of constitutive RAS GTPase activity
T1 construct: host or cells: PANC-1 human pancreatic ductal adenocarcinoma cells

KRAS G12D = target: T2, KRAS G12D (Homo sapiens, UniProt P01116, G12D); assay: Cellular Phospho-ERK AlphaLISA Assay for KRAS Inhibition; type: cell-based; conditions: HPAC cells (KRAS G12D, human pancreatic cancer), 2 h incubation, p-ERK 1/2 (Thr202/Tyr204) AlphaLISA; read-out: relative IC50, reduction of levels of phosphorylated ERK-1/2
T2 construct: endogenous in cells; host or cells: HPAC human pancreatic cancer cells

Compound | IC50 (KRas G12D mutant) | IC50 (KRAS G12D)
CC(Oc1nc(N2C3CCC2CN(C[C@@H](C)O)C3)c2c3c(c(-c4ncc(F)c5sc(N)c(C#N)c45)c(F)c2n1)COC3)[C@@H]1[C@@H](F)CCN1C (single isomer, unassigned; isomer 1) [Example 1] | < 100 nM | 
CC(Oc1nc(N2C3CCC2CN(C[C@@H](C)O)C3)c2c3c(c(-c4ncc(F)c5sc(N)c(C#N)c45)c(F)c2n1)COC3)[C@@H]1C[C@@H](F)CN1C (single isomer, unassigned; isomer 1) [Example 2] | < 100 nM | 
CC(Oc1nc(N2C3CCC2CN(C)C3)c2c3c(c(-c4ncc(F)c5sc(N)c(C#N)c45)c(F)c2n1)COC3)[C@@H]1C[C@@H](F)CN1C (single isomer, unassigned; isomer 1) [Example 4] | < 100 nM | 
CO[C@@H]1C[C@@H](C(C)Oc2nc(N3C4CCC3CN(C[C@@H](C)O)C4)c3c4c(c(-c5ncc(F)c6sc(N)c(C#N)c56)c(F)c3n2)COC4)N(C)C1 (single isomer, unassigned; isomer 1) [Example 6] | < 100 nM | 
COCCN1CC2CCC(C1)N2c1nc(OC(C)[C@@H]2C[C@@H](OC)CN2C)nc2c(F)c(-c3ncc(F)c4sc(N)c(C#N)c34)c3c(c12)COC3 (single isomer, unassigned; isomer 1) [Example 7] | < 100 nM | 
COCCCN1CC2CCC(C1)N2c1nc(OC(C)[C@@H]2C[C@@H](OC)CN2C)nc2c(F)c(-c3ncc(F)c4sc(N)c(C#N)c34)c3c(c12)COC3 (single isomer, unassigned; isomer 1) [Example 8] | < 100 nM | 
CO[C@@H]1C[C@@H](C(C)Oc2ncc3c4c(c(-c5ncc(F)c6sc(N)c(C#N)c56)c(F)c3n2)COC4)N(C)C1 (single isomer, unassigned; isomer 1) [Example 14] |  | < 100 nM
CC(Oc1nc(N2C3CCC2CN(C)C3)c2c3c(c(-c4ncc(F)c5sc(N)c(C#N)c45)c(F)c2n1)COC3)[C@@H]1C[C@@H](F)CN1C.CS(=O)(=O)O (single isomer, unassigned; isomer 1) [Example 16] |  | < 100 nM
CO[C@@H]1C[C@@H](C(C)Oc2nc(N3C4CCC3CN(C[C@@H](C)O)C4)c3c4c(c(-c5ncc(F)c6sc(N)c(C#N)c56)c(F)c3n2)COC4)N(C)C1.CS(=O)(=O)O (single isomer, unassigned; isomer 1) [Example 17] |  | < 100 nM
COCCN1CC2CCC(C1)N2c1nc(OC(C)[C@@H]2C[C@@H](OC)CN2C)nc2c(F)c(-c3ncc(F)c4sc(N)c(C#N)c34)c3c(c12)COC3.CS(=O)(=O)O (single isomer, unassigned; isomer 1) [Example 18] |  | < 100 nM
COCCCN1CC2CCC(C1)N2c1nc(OC(C)[C@@H]2C[C@@H](OC)CN2C)nc2c(F)c(-c3ncc(F)c4sc(N)c(C#N)c34)c3c(c12)COC3.CS(=O)(=O)O (single isomer, unassigned; isomer 1) [Example 19] |  | < 100 nM
COCCCN1CC2CCC(C1)N2c1nc(O[C@@H](C)[C@@H]2CCCN2C)nc2c(F)c(-c3ncc(F)c4sc(N)c(C#N)c34)c3c(c12)COC3 [Example 9, 2-Amino-7-fluoro-4-(5-fluoro-1-(3-(3-methoxypropyl)-3,8-diazabicyclo[3.2.1]octan-8-yl)-3-((S)-1-((S)-1-methypyrrolidin-2-yl)ethoxy)-7,9-dihydrofuro[3,4-f]quinazolin-6-yl)thieno[3,2-c]pyridine-3-carbonitrile] | < 100 nM | 
C[C@H](Oc1nc(N2C3CCC2CN(C)C3)c2c3c(c(-c4ncc(F)c5sc(N)c(C#N)c45)c(F)c2n1)COC3)[C@@H]1CCCN1C [Example 10, 2-Amino-7-fluoro-4-(5-fluoro-1-(3-methyl-3,8-diazabicyclo[3.2.1]octan-8-yl)-3-((S)-1-((S)-1-methylpyrrolidin-2-yl)ethoxy)-7,9-dihydrofuro[3,4-f]quinazolin-6-yl)thieno[3,2-c]pyridine-3-carbonitrile] | < 100 nM | 
C[C@@H](Oc1nc(N2C3CCC2CN(C)C3)c2c3c(c(-c4ncc(F)c5sc(N)c(C#N)c45)c(F)c2n1)COC3)[C@@H]1CCCN1C [Example 11, 2-Amino-7-fluoro-4-(5-fluoro-1-(3-methyl-3,8-diazabicyclo[3.2.1]octan-8-yl)-3-((R)-1-((S)-1-methylpyrrolidin-2-yl)ethoxy)-7,9-dihydrofuro[3,4-f]quinazolin-6-yl)thieno[3,2-c]pyridine-3-carbonitrile] | < 100 nM | 
C[C@H](Oc1nc(N2C3CCC2CN(C[C@@H](C)O)C3)c2c3c(c(-c4ncc(F)c5sc(N)c(C#N)c45)c(F)c2n1)COC3)[C@@H]1CCCN1C [Example 12, 2-Amino-7-fluoro-4-(5-fluoro-1-(3-((R)-2-hydroxypropyl)-3,8-diazabicyclo[3.2.1]octan-8-yl)-3-((S)-1-((S)-1-methylpyrrolidin-2-yl)ethoxy)-7,9-dihydrofuro[3,4-f]quinazolin-6-yl)thieno[3,2-c]pyridine-3-carbonitrile] | < 100 nM | 
C[C@H](Oc1ncc2c3c(c(-c4ncc(F)c5sc(N)c(C#N)c45)c(F)c2n1)COC3)[C@@H]1CCCN1C [Example 13, 2-Amino-7-fluoro-4-(5-fluoro-3-((S)-1-((S)-1-methylpyrrolidin-2-yl)ethoxy)-7,9-dihydrofuro[3,4-f]quinazolin-6-yl)thieno[3,2-c]pyridine-3-carbonitrile] |  | < 100 nM
COCCCN1CC2CCC(C1)N2c1nc(O[C@@H](C)[C@@H]2CCCN2C)nc2c(F)c(-c3ncc(F)c4sc(N)c(C#N)c34)c3c(c12)COC3.CS(=O)(=O)O [Example 15, 2-Amino-7-fluoro-4-(5-fluoro-1-(3-(3-methoxypropyl)-3,8-diazabicyclo[3.2.1]octan-8-yl)-3-((S)-1-((S)-1-methylpyrrolidin-2-yl)ethoxy)-7,9-dihydrofuro[3,4-f]quinazolin-6-yl)thieno[3,2-c]pyridine-3-carbonitrile methanesulfonic acid] |  | < 100 nM
CS(=O)(=O)O.C[C@H](Oc1nc(N2C3CCC2CN(C)C3)c2c3c(c(-c4ncc(F)c5sc(N)c(C#N)c45)c(F)c2n1)COC3)[C@@H]1CCCN1C [Example 20, 2-Amino-7-fluoro-4-(5-fluoro-1-(3-methyl-3,8-diazabicyclo[3.2.1]octan-8-yl)-3-((S)-1-((S)-1-methylpyrrolidin-2-yl)ethoxy)-7,9-dihydrofuro[3,4-f]quinazolin-6-yl)thieno[3,2-c]pyridine-3-carbonitrile methanesulfonic acid] |  | < 100 nM
COCCN1CC2CCC(C1)N2c1nc(O[C@@H](C)[C@@H]2CCCN2C)nc2c(F)c(-c3ncc(F)c4sc(N)c(C#N)c34)c3c(c12)COC3.CS(=O)(=O)O [Example 21, 2-Amino-7-fluoro-4-(5-fluoro-1-(3-(2-methoxyethyl)-3,8-diazabicyclo[3.2.1]octan-8-yl)-3-((S)-1-((S)-1-methylpyrrolidin-2-yl)ethoxy)-7,9-dihydrofuro[3,4-f]quinazolin-6-yl)thieno[3,2-c]pyridine-3-carbonitrile methanesulfonic acid] | < 100 nM | < 100 nM
